Data on one molecule can be found in PMC3342256.

For test [1], the target named is PfP2 deletion construct lacking 40 residues from the C-terminus (PfP2-Del 40) (Plasmodium falciparum) (UniProt O00806). The test is described as follows: SDS-PAGE (SDS-resistant oligomers); 100 µg of each recombinant protein, SDS and DTT treatment, Coomassie stain and immunoblot with anti-P2 monoclonal antibody E2G12; both purified. (In western blotting, separated proteins are transferred to a membrane and probed.)

Test [2] shares this target. The test is described as follows: NMR (1H-15N HSQC); deletion construct without the last 40 residues; data not shown; both purified.

These are yes or no findings as the source states them, for the method shown. Some results given as binding are weak or reduced against the parent protein; the word gives no strength.

B1: PfP2 deletion construct lacking 40 residues from the C-terminus (PfP2-Del 40) (domain or fragment, UniProt O00806 1-72)
chain: MAMKYVAAYLMCVLGGNENPSTKEVKNVLGAVNADVEDEVLNNFIDSLKGKSCHELITDGLKKLQNIGGGVA
As for B1, the binding entry in test [1] and in test [2] was “binds” each time.
